Results are given in words; binding and its absence hold for the method and conditions named. Binding seen in cells or lysates may run through a third protein. Some entries that bind do so weakly or less than the wild type.
T1: Fas/CD95 death receptor (human (endogenous in Jurkat)), P25445
T1 chain: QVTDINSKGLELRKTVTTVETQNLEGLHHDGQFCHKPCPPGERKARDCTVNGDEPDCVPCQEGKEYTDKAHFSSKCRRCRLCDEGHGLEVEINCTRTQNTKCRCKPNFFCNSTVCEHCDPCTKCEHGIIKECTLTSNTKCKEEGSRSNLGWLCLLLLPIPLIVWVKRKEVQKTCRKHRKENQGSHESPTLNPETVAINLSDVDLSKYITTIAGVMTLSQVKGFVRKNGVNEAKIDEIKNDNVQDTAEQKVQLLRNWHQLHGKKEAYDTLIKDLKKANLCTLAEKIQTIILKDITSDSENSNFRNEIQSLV


Biological target: T1, Fas/CD95 death receptor (human …)
Experiment: co-IP; Fas/CD95 immunoprecipitated with anti-Fas/CD95 (C-20) on protein A-Sepharose from the raft fraction (fractions 3-5) of Jurkat cells treated with 10 µM edelfosine for 9 h; lysis buffer 20 mM Tris-HCl pH 7.5, 100 mM KCl, 0.9% Triton X-100, 10% glycerol; blotted for FADD and procaspase-8
Conditions: remark: other sources report otherwise

| Binder | binding |
| --- | --- |
| Fas-associated death domain-containing protein (FADD), Q13158 1-208 (protein) MDPFLVLLHSVSSSLSSSELTELKFLCLGRVGKRKLERVQSGLDLFSMLLEQNDLEPGHTELLRELLASLRRHDLLRRVDDFEAGAAAGAAPGEEDLCAAFNVICDNVGKDWRRLARQLKVSDTKIDSIEDRYPRNLTERVRESLRIWKNTEKENATVAHLVGALRSCQMNLVADLVQEVQQARDLQNRSGAMSPMSWNSDASTSEAS | binds |
| procaspase-8, Q14790 1-479 (enzyme) MDFSRNLYDIGEQLDSEDLASLKFLSLDYIPQRKQEPIKDALMLFQRLQEKRMLEESNLSFLKELLFRINRLDLLITYLNTRKEEMERELQTPGRAQISAYRVMLYQISEEVSRSELRSFKFLLQEEISKCKLDDDMNLLDIFIEMEKRVILGEGKLDILKRVCAQINKSLLKIINDYEEFSKERSSSLEGSPDEFSNGEELCGVMTISDSPREQDSESQTLDKVYQMKSKPRGYCLIINNHNFAKAREKVPKLHSIRDRNGTHLDAGALTTTFEELHFEIKPHDDCTVEQIYEILKIYQLMDHSNMDCFICCILSHGDKGIIYGTDGQEAPIYELTSQFTGLKCPSLAGKPKVFFIQACQGDNYQKGIPVETDSEEQPYLEMDLSSPQTRYIPDEADFLLGMATVNNCVSYRNPAEGTWYIQSLCQSLRERCPRGDDILTILTEVNYEVSNKDDKKNMGKQMPQPTFTLRKKLVFPSD | binds |

— PMC2662410
